{"source": "the supplement of paper PMC5949888", "note": "Most values lie at the floor of the assay. Slopes are relative: functional sequences can read slightly below zero."}
{"test_system": "Saccharomyces cerevisiae PS128 hsf1 delta, HSF1(1-493) fusion", "experiment": "growth estimate (transactivation domain function in HSF1 fusion, heat-shock survival) (a.u. (slope of normalised read count over time)); higher = stronger growth at 37°C, i.e. more transactivation activity", "details": "library: random library", "protocol": "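Random 60-nt DNA library encoding peptides of up to 20 aa, fused to the C-terminus of yeast HSF1 residues 1-493 (C-terminal TAD deleted) and expressed from the native HSF1 promoter on a CEN plasmid in hsf1-deleted S. cerevisiae PS128. Cells were selected at 37°C on -trp 5-FOA plates for 0, 2, 4, 6 and 8 days and amplicons were sequenced. Growth estimate is the slope of a robust linear fit of total-sum-normalised read counts (normalised to the first time point) over time, using at least 2 replicates. Sequences are classed functional (TAD activity) above a threshold of -0.13, set from stop-codon control sequences.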"}
{"substance": "GCGVCLLVSQGLPAGAHEPG", "growth estimate": "< -0.25"}
{"substance": "GCHGTRDKKGGLETSESATL", "growth estimate": "< -0.25"}
{"substance": "GCHSEVAGLKNLNTMARTPS", "growth estimate": "< -0.25"}
{"substance": "GCIAPTVGVLNGMVRTPIAV", "growth estimate": "< -0.25"}
{"substance": "GCKG", "growth estimate": -0.25}
{"substance": "GCLGLMPCLLVGPARVLSHI", "growth estimate": -0.246}
{"substance": "GCLLTA", "growth estimate": "< -0.25"}
{"substance": "GCLSLGNGRGSPVRLIGCDH", "growth estimate": "< -0.25"}
{"substance": "GCLTLCIIRG", "growth estimate": "< -0.25"}
{"substance": "GCLVSYILRYSMQRPCTLHN", "growth estimate": "< -0.25"}
{"substance": "GCMERKSSLGAIGNQVSHGG", "growth estimate": "< -0.25"}
{"substance": "GCP", "growth estimate": "< -0.25"}
{"substance": "GCPRHRK", "growth estimate": "< -0.25"}
{"substance": "GCQYMMVTSDSLCTQ", "growth estimate": "< -0.25"}
{"substance": "GCRCLSGIWYGVNARRINQA", "growth estimate": "< -0.25"}
{"substance": "GCRTTFTSPLPLLE", "growth estimate": "< -0.25"}
{"substance": "GCSKVWQSALDSLYTVGITW", "growth estimate": "< -0.25"}
{"substance": "GCSMSVQFNTLYVDQQLNLG", "growth estimate": "< -0.25"}
{"substance": "GCSTGLI", "growth estimate": -0.248}
{"substance": "GCTVGPGAPHRRAATNGRRQ", "growth estimate": "< -0.25"}
{"substance": "GCVMWISRVWQYRRWYRVNS", "growth estimate": "< -0.25"}
{"substance": "GCVQRTLL", "growth estimate": "< -0.25"}
{"substance": "GCVRASVQKFGTAKDRATVG", "growth estimate": "< -0.25"}
{"substance": "GCVVRP", "growth estimate": "< -0.25"}
{"substance": "GCWPFTSVGW", "growth estimate": -0.22}
{"substance": "GCWYVVSKTFHQRMCNGDQS", "growth estimate": "< -0.25"}
{"substance": "GCYRLSLTW", "growth estimate": "< -0.25"}
{"substance": "GCYRVG", "growth estimate": "< -0.25"}
{"substance": "GDALAAFCLLCKWSSDNRRA", "growth estimate": "< -0.25"}
{"substance": "GDCDGGILCVLALG", "growth estimate": "< -0.25"}
{"substance": "GDENMSAFFQRLVSARRGTT", "growth estimate": -0.243}
{"substance": "GDERNGGSIAEIWDLRWSEM", "growth estimate": -0.247}
{"substance": "GDETVCTVDRPRFSMAVRGL", "growth estimate": "< -0.25"}
{"substance": "GDEVFY", "growth estimate": "< -0.25"}
{"substance": "GDFFLK", "growth estimate": "< -0.25"}
{"substance": "GDGKD", "growth estimate": "< -0.25"}
{"substance": "GDGSAGPAN", "growth estimate": "< -0.25"}
{"substance": "GDHDR", "growth estimate": "< -0.25"}
{"substance": "GDHG", "growth estimate": "< -0.25"}
{"substance": "GDIVTRRWP", "growth estimate": "< -0.25"}
{"substance": "GDLARARAFNQVEEFRYHKR", "growth estimate": "< -0.25"}
{"substance": "GDLIKMYRGMCKCFCMVYGP", "growth estimate": "< -0.25"}
{"substance": "GDLMEARHTW", "growth estimate": "< -0.25"}
{"substance": "GDLRPAGWSYIAGLLVLD", "growth estimate": -0.242}
{"substance": "GDLSILSATQEMGPLAAGSP", "growth estimate": "< -0.25"}
{"substance": "GDPKMSSPHT", "growth estimate": "< -0.25"}
{"substance": "GDQTQQP", "growth estimate": "< -0.25"}
{"substance": "GDQVSWAALLPVSI", "growth estimate": -0.194}
{"substance": "GDRPLPLCGGVIGIVENARV", "growth estimate": "< -0.25"}
{"substance": "GDRPPCEPDGRADAPRPVAF", "growth estimate": "< -0.25"}
{"substance": "GDSGGVSRRKKNKYGQDP", "growth estimate": "< -0.253"}
{"substance": "GDSVTPIVRGSVDDSSSVAR", "growth estimate": "< -0.25"}
{"substance": "GDSVTRAVRPVKRPPSGRRP", "growth estimate": "< -0.25"}
{"substance": "GDTRCRRRTAL", "growth estimate": "< -0.25"}
{"substance": "GDTYSRGRTECA", "growth estimate": "< -0.25"}
{"substance": "GDVSLGVLIRTSP", "growth estimate": "< -0.25"}
{"substance": "GDWDSTPVRSGDSHMYVDRK", "growth estimate": "< -0.25"}
{"substance": "GDWTLPVLFVLTATRQRKVG", "growth estimate": "< -0.25"}
{"substance": "GDWVFIWFIFRV", "growth estimate": "< -0.25"}
{"substance": "GDYGISSTTLRTILDRMQSS", "growth estimate": "< -0.25"}
{"substance": "GEDLYGSLGRRVD", "growth estimate": "< -0.25"}
{"substance": "GEGCYISPSGCSRAATST", "growth estimate": "< -0.25"}
{"substance": "GEGEICGISIKSVLAILVIV", "growth estimate": "< -0.25"}
{"substance": "GEGLGSITDAAKVCTLGRTR", "growth estimate": "< -0.25"}
{"substance": "GEGLNLMTTGKVRYGSNHVV", "growth estimate": "< -0.25"}
{"substance": "GEGPGRESLPREVVFAPLIA", "growth estimate": "< -0.25"}
{"substance": "GEGRREYSFGEEKYV", "growth estimate": "< -0.25"}
{"substance": "GEGVDRCDGGGIFRCR", "growth estimate": "< -0.25"}
{"substance": "GEKISC", "growth estimate": "< -0.25"}
{"substance": "GEL", "growth estimate": "< -0.25"}
{"substance": "GELA", "growth estimate": "< -0.25"}
{"substance": "GELGWSRLT", "growth estimate": "< -0.25"}
{"substance": "GELTTAL", "growth estimate": "< -0.25"}
{"substance": "GENDHYRAPHFTTNGVTVLQ", "growth estimate": "< -0.25"}
{"substance": "GEPIAGRIIKCTVRRRRKTP", "growth estimate": "< -0.25"}
{"substance": "GEPPTLRWRYVFGLA", "growth estimate": "< -0.25"}
{"substance": "GEQALLHNQQHEIRLCVYFA", "growth estimate": "< -0.25"}
{"substance": "GEQPINVHV", "growth estimate": "< -0.25"}
{"substance": "GERTGSERG", "growth estimate": "< -0.25"}
{"substance": "GERTNRLAGASSPVGGEW", "growth estimate": "< -0.25"}
{"substance": "GESRPAIPLGVNQWFEPNTI", "growth estimate": "< -0.25"}
{"substance": "GESTPWFRCQSREC", "growth estimate": -0.246}
{"substance": "GESVIRFFRVGLVGCHIGHS", "growth estimate": "< -0.25"}
{"substance": "GESVLSCEYLSALGEFLVTS", "growth estimate": "< -0.25"}
{"substance": "GETRRTARLTSGLVEIYALE", "growth estimate": "< -0.25"}
{"substance": "GEVEFLVKQGDLPSLASRKV", "growth estimate": "< -0.25"}
{"substance": "GEVEKSRWRPIPNNYPRDTV", "growth estimate": "< -0.25"}
{"substance": "GEVMLILPKHKIVF", "growth estimate": "< -0.25"}
{"substance": "GEVPQEARRGLCGALAFSHN", "growth estimate": "< -0.25"}
{"substance": "GEWFKRQRLALYRGVLIAGQ", "growth estimate": -0.246}
{"substance": "GFARFPANPPEGPNEKVRSL", "growth estimate": "< -0.25"}
{"substance": "GFD", "growth estimate": "< -0.25"}
{"substance": "GFDSELSQAVRARYPMTPPT", "growth estimate": "< -0.25"}
{"substance": "GFEIRKTGTHDAPVASLRVP", "growth estimate": "< -0.25"}
{"substance": "GFESAWVLGWNPMWFSSNAS", "growth estimate": -0.246}
{"substance": "GFEVEGVILSCQYTSEA", "growth estimate": "< -0.25"}
{"substance": "GFGAVDRSFRSTCSLA", "growth estimate": "< -0.25"}
{"substance": "GFGTARTSA", "growth estimate": "< -0.25"}
{"substance": "GFHAPHYGVSSNYAARKSYP", "growth estimate": -0.171}
{"substance": "GFHRPGDSMYATRLSPTVPS", "growth estimate": "< -0.25"}
{"substance": "GFIGTIQRPPLETHPK", "growth estimate": "< -0.25"}
{"substance": "GFMFIRLCITL", "growth estimate": "< -0.25"}
{"substance": "GFNGG", "growth estimate": "< -0.25"}
{"substance": "GFNLGWGQASSCASLGRGEH", "growth estimate": "< -0.25"}
{"substance": "GFNV", "growth estimate": "< -0.25"}
{"substance": "GFPQVMRCELRLIH", "growth estimate": "< -0.25"}
{"substance": "GFQTILSYGLAIVHIYSCNR", "growth estimate": "< -0.25"}
{"substance": "GFRAWQLGNQGHRGRRQSQK", "growth estimate": "< -0.25"}
{"substance": "GFRCGQLVRLRIRGHVVRPS", "growth estimate": "< -0.25"}
{"substance": "GFRLRAWGPYVHRR", "growth estimate": "< -0.25"}
{"substance": "GFRMRVESTRSYGCPAL", "growth estimate": "< -0.25"}
{"substance": "GFRPWN", "growth estimate": "< -0.25"}
{"substance": "GFRSAVKSQSSLGEITRFGD", "growth estimate": "< -0.25"}
{"substance": "GFSGSPAGTIALSSLRFSFK", "growth estimate": "< -0.25"}
{"substance": "GFTEPWARSASVTFPSVFIT", "growth estimate": "< -0.25"}
{"substance": "GFTKPGFIVARLNL", "growth estimate": "< -0.25"}
{"substance": "GFTMGYRGKRQLVGKQCGS", "growth estimate": "< -0.25"}
{"substance": "GFV", "growth estimate": "< -0.25"}
{"substance": "GFVDS", "growth estimate": "< -0.25"}
{"substance": "GFVFI", "growth estimate": "< -0.25"}
{"substance": "GFVL", "growth estimate": -0.227}
{"substance": "GFVLVAGSKKKREKTHQ", "growth estimate": "< -0.25"}
{"substance": "GFVPLTGVLSTSGRAQGKSV", "growth estimate": "< -0.25"}
{"substance": "GFVRFWYASACPILPFEVST", "growth estimate": "< -0.25"}
{"substance": "GFWGSCAVHYLGHAIGSWRH", "growth estimate": -0.0878}
{"substance": "GFYSLLN", "growth estimate": "< -0.25"}
{"substance": "GGAEGHSRLSAYGIRSRVIR", "growth estimate": "< -0.25"}
{"substance": "GGAELRSPQRGQMGPGGTPP", "growth estimate": "< -0.25"}
{"substance": "GGAEVTDYEHLFPPT", "growth estimate": "< -0.25"}
{"substance": "GGAHELLYMSHGKPM", "growth estimate": "< -0.25"}
{"substance": "GGARFDEGGNALGNDRV", "growth estimate": "< -0.25"}
{"substance": "GGCACNAPRIQCNVEIHLLM", "growth estimate": "< -0.25"}
{"substance": "GGCLG", "growth estimate": "< -0.25"}
{"substance": "GGCSPVGGRSASTVPFY", "growth estimate": "< -0.25"}
{"substance": "GGCSSAGWSA", "growth estimate": "< -0.25"}
{"substance": "GGEGV", "growth estimate": "< -0.25"}
{"substance": "GGERFLCMLLFLERTLLLPS", "growth estimate": "< -0.25"}
{"substance": "GGESRVCRASAWVQQVIKIR", "growth estimate": "< -0.25"}
{"substance": "GGFLPPDV", "growth estimate": "< -0.25"}
{"substance": "GGFNLWSHLRSTSEDYNPYI", "growth estimate": -0.243}
{"substance": "GGFYIHNLSTHSVPCRCGDE", "growth estimate": "< -0.25"}
{"substance": "GGGKCAGLFN", "growth estimate": "< -0.25"}
{"substance": "GGGRARSEPPWDAMTAVIKF", "growth estimate": "< -0.25"}
